Measured values reported in article PMC5681774.
Results are given in words; binding and its absence hold for the method and conditions named. For some assays here: In cells and extracts the contact can be indirect. Some entries that bind do so weakly or less than the wild type. For some assays here: Sequences can lack the tags named with a protein.

By UniProt entry, the sequences of proteins in these tests, tags left out. Where a name states a change or a piece, a line headed by the entry shows the natural chain unless it says otherwise. Residues count along the entry.
UniProt P42227: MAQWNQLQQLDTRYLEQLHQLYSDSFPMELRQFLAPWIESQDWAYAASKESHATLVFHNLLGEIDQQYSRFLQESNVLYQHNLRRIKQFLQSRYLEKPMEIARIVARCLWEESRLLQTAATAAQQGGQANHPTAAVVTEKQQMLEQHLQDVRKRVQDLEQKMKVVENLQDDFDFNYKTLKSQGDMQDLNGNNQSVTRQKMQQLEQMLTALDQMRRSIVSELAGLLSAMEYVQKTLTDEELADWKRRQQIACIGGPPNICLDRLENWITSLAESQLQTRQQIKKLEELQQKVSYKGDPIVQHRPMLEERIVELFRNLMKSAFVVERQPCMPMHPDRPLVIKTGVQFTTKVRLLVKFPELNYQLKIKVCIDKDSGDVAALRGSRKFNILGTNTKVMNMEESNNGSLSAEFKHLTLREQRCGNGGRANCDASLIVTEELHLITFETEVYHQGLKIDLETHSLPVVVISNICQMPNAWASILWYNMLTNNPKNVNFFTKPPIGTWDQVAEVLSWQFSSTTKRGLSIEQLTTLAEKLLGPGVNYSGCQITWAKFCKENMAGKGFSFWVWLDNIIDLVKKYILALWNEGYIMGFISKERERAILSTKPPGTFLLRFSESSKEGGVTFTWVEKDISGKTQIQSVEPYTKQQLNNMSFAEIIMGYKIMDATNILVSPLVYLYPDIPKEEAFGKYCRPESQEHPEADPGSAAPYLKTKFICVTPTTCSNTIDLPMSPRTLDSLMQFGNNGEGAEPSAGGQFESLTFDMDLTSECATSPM
UniProt Q8C2B3: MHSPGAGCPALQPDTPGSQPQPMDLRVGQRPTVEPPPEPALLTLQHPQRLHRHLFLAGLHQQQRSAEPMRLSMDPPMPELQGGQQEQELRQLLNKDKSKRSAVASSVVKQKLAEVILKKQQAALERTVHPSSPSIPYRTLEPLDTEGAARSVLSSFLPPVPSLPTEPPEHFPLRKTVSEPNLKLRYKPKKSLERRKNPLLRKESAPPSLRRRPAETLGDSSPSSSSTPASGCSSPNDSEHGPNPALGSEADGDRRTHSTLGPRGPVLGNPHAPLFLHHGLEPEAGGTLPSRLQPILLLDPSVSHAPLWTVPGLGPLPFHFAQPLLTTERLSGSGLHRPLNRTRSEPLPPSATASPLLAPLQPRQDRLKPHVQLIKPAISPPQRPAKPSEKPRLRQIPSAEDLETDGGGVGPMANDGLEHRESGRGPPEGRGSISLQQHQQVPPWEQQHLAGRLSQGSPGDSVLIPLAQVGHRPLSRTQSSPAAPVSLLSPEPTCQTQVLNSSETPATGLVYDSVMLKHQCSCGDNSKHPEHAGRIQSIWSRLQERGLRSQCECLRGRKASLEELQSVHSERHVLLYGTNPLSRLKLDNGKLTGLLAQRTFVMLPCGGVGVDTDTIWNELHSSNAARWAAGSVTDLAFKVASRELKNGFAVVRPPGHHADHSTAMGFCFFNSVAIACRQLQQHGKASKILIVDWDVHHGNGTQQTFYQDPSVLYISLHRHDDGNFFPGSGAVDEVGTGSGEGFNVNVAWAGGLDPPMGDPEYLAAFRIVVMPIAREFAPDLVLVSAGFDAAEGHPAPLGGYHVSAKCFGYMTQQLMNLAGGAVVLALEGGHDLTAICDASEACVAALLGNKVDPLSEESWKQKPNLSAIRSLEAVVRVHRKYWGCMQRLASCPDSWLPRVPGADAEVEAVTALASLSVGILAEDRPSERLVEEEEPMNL
GST-Hdac7(aa445–938): residues 445-938 of Q8C2B3
UniProt P40763: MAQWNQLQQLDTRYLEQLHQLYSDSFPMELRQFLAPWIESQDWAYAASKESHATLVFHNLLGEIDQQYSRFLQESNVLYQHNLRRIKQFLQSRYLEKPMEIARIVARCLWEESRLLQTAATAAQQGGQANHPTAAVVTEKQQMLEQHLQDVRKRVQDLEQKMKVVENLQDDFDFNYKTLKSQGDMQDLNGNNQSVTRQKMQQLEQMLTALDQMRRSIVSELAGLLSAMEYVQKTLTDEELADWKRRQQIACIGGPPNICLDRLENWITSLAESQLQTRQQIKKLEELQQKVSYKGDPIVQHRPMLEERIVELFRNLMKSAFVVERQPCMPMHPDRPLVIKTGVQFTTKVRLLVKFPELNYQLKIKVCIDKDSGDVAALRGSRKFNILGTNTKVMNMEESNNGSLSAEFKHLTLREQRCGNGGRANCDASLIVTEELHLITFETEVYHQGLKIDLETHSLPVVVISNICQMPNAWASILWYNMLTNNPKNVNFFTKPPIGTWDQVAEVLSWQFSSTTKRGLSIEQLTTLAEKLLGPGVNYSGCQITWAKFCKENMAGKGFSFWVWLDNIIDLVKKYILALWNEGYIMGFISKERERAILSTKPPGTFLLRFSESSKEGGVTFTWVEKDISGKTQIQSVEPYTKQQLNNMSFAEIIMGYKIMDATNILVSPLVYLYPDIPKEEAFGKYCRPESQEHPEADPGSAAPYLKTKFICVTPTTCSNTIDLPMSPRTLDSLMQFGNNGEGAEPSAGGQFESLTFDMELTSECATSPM

Experiments:
[1] = target: Stat3, endogenous mouse protein (mouse (endogenous in lung tumors of K-Ras mice)) (UniProt P42227); assay: co-IP; endogenous proteins in lung tumors from control K-Ras mice; immunoprecipitation and Western blot
[2] = target: Flag-tagged Stat3 (mouse) (UniProt P42227); assay: co-IP; exogenous mouse proteins expressed in 293T cells; reciprocal immunoprecipitation and Western blot
[3] = target: exogenous mouse Hdac7 expressed in 293T cells (mouse) (UniProt Q8C2B3); assay: as above
[4] = target: GST-Hdac7(aa445–938) (mouse) (UniProt Q8C2B3); assay: pull-down; GST pull-down of affinity-purified proteins incubated in Nonidet P-40 lysis buffer for 1.5 h, washed three times with PBS, Western blot with anti-Hdac7 and anti-Stat3; both purified
[5] = target: STAT3 (signal transducer and activator of transcription 3), endogenous human protein (human (endogenous in H1299)) (UniProt P40763); assay: co-IP; endogenous proteins in H1299 human lung cancer cells; immunoprecipitation and Western blot

For “Hdac7, endogenous mouse protein (from UniProt Q8C2B3-1 1-938)”, the binding [1] was “binds”.

For “exogenous mouse Hdac7 expressed in 293T cells (from UniProt Q8C2B3-1 1-938)”, the binding [2] was “binds”.

In the case of “Flag-tagged Stat3 (from UniProt P42227 1-770)”, the binding [3] is reported as “binds” and the binding [4] is reported as “binds”.

B1: HDAC7 (histone deacetylase 7), endogenous human protein (protein, UniProt Q8WUI4 1-952)
chain: MDLRVGQRPPVEPPPEPTLLALQRPQRLHHHLFLAGLQQQRSVEPMRLSMDTPMPELQVGPQEQELRQLLHKDKSKRSAVASSVVKQKLAEVILKKQQAALERTVHPNSPGIPYRTLEPLETEGATRSMLSSFLPPVPSLPSDPPEHFPLRKTVSEPNLKLRYKPKKSLERRKNPLLRKESAPPSLRRRPAETLGDSSPSSSSTPASGCSSPNDSEHGPNPILGSEALLGQRLRLQETSVAPFALPTVSLLPAITLGLPAPARADSDRRTHPTLGPRGPILGSPHTPLFLPHGLEPEAGGTLPSRLQPILLLDPSGSHAPLLTVPGLGPLPFHFAQSLMTTERLSGSGLHWPLSRTRSEPLPPSATAPPPPGPMQPRLEQLKTHVQVIKRSAKPSEKPRLRQIPSAEDLETDGGGPGQVVDDGLEHRELGHGQPEARGPAPLQQHPQVLLWEQQRLAGRLPRGSTGDTVLLPLAQGGHRPLSRAQSSPAAPASLSAPEPASQARVLSSSETPARTLPFTTGLIYDSVMLKHQCSCGDNSRHPEHAGRIQSIWSRLQERGLRSQCECLRGRKASLEELQSVHSERHVLLYGTNPLSRLKLDNGKLAGLLAQRMFVMLPCGGVGVDTDTIWNELHSSNAARWAAGSVTDLAFKVASRELKNGFAVVRPPGHHADHSTAMGFCFFNSVAIACRQLQQQSKASKILIVDWDVHHGNGTQQTFYQDPSVLYISLHRHDDGNFFPGSGAVDEVGAGSGEGFNVNVAWAGGLDPPMGDPEYLAAFRIVVMPIAREFSPDLVLVSAGFDAAEGHPAPLGGYHVSAKCFGYMTQQLMNLAGGAVVLALEGGHDLTAICDASEACVAALLGNRVDPLSEEGWKQKPNLNAIRSLEAVIRVHSKYWGCMQRLASCPDSWVPRVPGADKEEVEAVTALASLSVGILAEDRPSEQLVEEEEPMNL
In the case of B1, the binding [5] is reported as “binds”.
